# In PubChem BioAssay AID1347423 (Functional Genomics Laboratory (NCATS/FGL), 2020):
# Screen size: about 52,000 sequences; about 210 (0.4%) were called active.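 Rule for the calls: active = gene whose silencing raises cell survival under the drug, median off-target-corrected z-score across its silencing RNAs 2 or more; inactive = the rest.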 The list shows a part of the results.
# Test: Resistance to Poly (ADP-Ribose) Polymerase inhibitor: Gene Identification via Genome-wide siRNA Screen
# Conditions: mouse BRCA2 R2336H ES cells, olaparib, CellTiter-Glo viability; active compounds read high
# Outline: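 Mouse BRCA2 R2336H ES cells were reverse-transfected with siRNA (20 nM final), treated at 48 h with 500 nM olaparib, and read by CellTiter-Glo after 72 h. Scores: MAD-based z per siRNA, median per gene, seed off-target correction.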
row,Sequence,z-score
1,GGGACGAUGUCACUAUUAATT against Myrip,inactive: -1.14
2,GGAGUUCCUAUGAUCAAAUTT against 1700023O11Rik,inactive: 0.876
3,GGAUGCAGAAGCAACUUAATT against AA986860,inactive: -0.959
4,GACUUUUCAGGCAUACCUATT against E130113K08Rik,inactive: 1.71
5,CCAUGGUUGCCAUAUAUUUTT against Pex19,inactive: 0.785
6,CCUCCUUCACCAACUUAAATT against Rab33a,inactive: 2.4
7,GGAGAGAACAUUAAAGAUATT against Mtmr2,inactive: -0.0856
8,GGUAACAUGGUUUUAACAGTT against C030003D03Rik,inactive: -0.108
9,GGUUAUAUGGACCCUAAAATT against Agtrl1,inactive: -1.75
10,GGCUCUUUGAUCACCAUUGTT against 4933403F05Rik,inactive: -0.894
11,GGUACAAAGUGAAAUAGCUTT against Rnf34,inactive: 0.213
12,GCAGGAGUCAAAUUUUCUATT against BC030440,inactive: 1.06
13,GGUAUCAGCUUCAGUAGCCTT against BC030314,inactive: -0.453
14,GGACAUUUCUGACAAAAAGTT against Cab39,inactive: -0.985
15,GGAUAAGAAAACUGAAGAATT against Tex16,inactive: -1.23
16,GGAAGAAUUAAUGAAUACCTT against Ncoa1,inactive: -0.194
17,GGAGUGUGGAAUUUAAUACTT against Cstf2t,inactive: 0.162
18,GGCAGUUGAAUUGUUUGAGTT against Dact1,inactive: 0.618
19,GCUCUACGAAAAGAAAAUCTT against Emd,inactive: 0.159
20,CCUUAUGAUCCCAACUUUUTT against Hnrpk,inactive: -2.36
21,CCUGCUCAUCAUUCUUCUCTT against Olfr50,inactive: -0.459
22,GCAACAUAUCGGCAGAUGATT against Cpsf3,inactive: -1.53
23,GGACAUUCAUUCACCUUAUTT against 2610209A20Rik,inactive: -1.48
24,GGAUUUCUUUGUGGAGCCCTT against A930010I02,inactive: -1.22
25,GCAAGUGUUAGAACACAAGTT against Cish,inactive: -0.299
26,GCUCGUAGCUUUCAACAAATT against Nope,inactive: 0.489

row,Sequence,z-score
1,GGAGAAGUGAUUAAAAUCATT against E430004N04Rik,inactive: -0.648
2,CCUCCUCUAUCAAGACAUUTT against Txnl4b,inactive: 0.394
3,CGCAAAGAGGUAAAUGAUCTT against Rps6ka6,inactive: -0.256
4,CCUUUGGUAGAGACCUUUUTT against Statip1,inactive: -1.7
5,GCAGUCCUCAGUCGAGAAATT against Aqp9,inactive: 0.171
6,GGCAAGUCUUUAAAAGUCCTT against Xrcc2,inactive: -0.442
7,CCAUACUGUUAUAGUGGUGTT against Olfr25,inactive: -0.325
8,GGAAAAAGUGCAUUUAUGUTT against Fnbp3,inactive: -2.43
9,GAGAAGAAAAAAUGCAGUGTT against Olfr825,inactive: -0.245
10,GGAUUUCCCUAAAAAACACTT against Tbl2,inactive: 0.283
11,UGGGAAGGUGCUCACUGAGTT against BC048355,inactive: -1.49
12,CGCACAAGAGUGGUUCGAATT against Sytl1,inactive: 1.14
13,GGUGCAUUUAAAAAAGCUGTT against Olfr1448,inactive: -0.223
14,GCAGCCUUUGUACCAUUAUTT against LOC434881,inactive: -1.65
15,CCAGUUAUGACAAUUAAGATT against Epha3,inactive: 0.401
16,GGAACCUAUCCAAGAAGUATT against Ckap2,inactive: -0.379
17,GCCAAAAGAAAUUUGGGACTT against Txndc9,inactive: 0.167
18,GGAGAAAAAUCAUCUUAUCTT against Tead1,inactive: -0.454
19,CCAAGUCUCGUGUGAAAGATT against Nefh,inactive: 0.0612
20,GCCAUUACAAGUGAUAUAATT against 1810074P20Rik,inactive: -1.68
21,GCUGGAUGGCACUUAUGACTT against 2210413P12Rik,inactive: -0.576
22,GGCUAUGAAACAGUACAAUTT against Thoc4,inactive: -3.03
23,GCCAAGCUUGUCCAUUGAUTT against Akap9,inactive: -2.76
24,GGUACUAAUGGAUUACCCATT against BC031181,inactive: -1.67
25,GCUUAAAUAGCACAGAUUUTT against 2600014M03Rik,inactive: 1.04
26,GGAAUUGAUCCCAUUUUAATT against 1810038H16Rik,inactive: 1.83

row,Sequence,z-score
1,GGAUAUAGGUGUGAUCUAGTT against 1810057P16Rik,inactive: 0.208
2,GGUCCAAGAAGGAUUACCUTT against Uox,inactive: 0.144
3,GGAUCCCACACUUUUCUGATT against Rxra,inactive: 1.02
4,CCGACUCCCAUGCAUCUAUTT against Mccc2,inactive: -0.122
5,GGAACAAGGUAAAAUACAUTT against Nthl1,inactive: -0.986
6,GGCUUACCUGAUGGUUGAUTT against Asb14,inactive: -0.814
7,GGAUGUACUUAACUGUAAGTT against 3110001D03Rik,inactive: -0.127
8,GCUGAUGGUAAAUUCACAGTT against LOC381286,inactive: 1.15
9,CCAUUCAUUUUAUCACUUCTT against Il1rn,inactive: -0.013
10,GGUUUCUGGAGCGGCCAAATT against 2410004L22Rik,inactive: 0.365
11,GGACAUUUAAAAUCACUUGTT against 9030611O19Rik,inactive: -0.257
12,GGGCAAAAUCGUGUCAAGCTT against Dpp9,inactive: 0.588
13,GGAAAUGAUGAGCAAGUUATT against Wdr22,inactive: -0.729
14,GGACACUGUGUAUUUUGUATT against Col11a2,inactive: -1.3
15,GGUUUUCUACAGUUAUUGUTT against Ablim2,inactive: -0.223
16,GGCAUGUUGGAGGUAAUAATT against 1600031M04Rik,inactive: -1
17,GGGUGAAAUUCUGUUGAAGTT against D230002A01Rik,inactive: 0.27
18,GGAGUAUGGGACCAGAAUATT against Tarbp2,inactive: -1.53
19,GGUGAACGGUGAGAAUGUGTT against Slc9a3r1,inactive: -2.25
20,CCGGUACCUUGCUAUGAAGTT against Fgf2,inactive: 0.203
21,CCAUAGGUAUGUUAAUCGATT against Rpo1-2,inactive: -0.819
22,GGAGUUCUACAAUCAAACATT against Slc2a1,inactive: 0.715
23,CGCAUUUUCUCUCGAGCUUTT against Slc25a30,inactive: 0.744
24,GGAUGUCUGUCUCAAUUCUTT against Olfr1012,inactive: -0.948
25,GCAUAAAGAGGCCAUACCCTT against BC065120,inactive: -0.357
26,GCAUGCAAAUCUCCUCUAATT against Sema3b,inactive: -0.0836

row,Sequence,z-score
1,GCAAUUUGUAUGACGGUCUTT against Olfr1240,inactive: 0.658
2,GCAGAGCUUACCACAGACUTT against Inppl1,inactive: 1.56
3,GCGUGAACGGAUAAAAAAUTT against Figla,inactive: 0.0291
4,GGCUCUAGAAGCGAGAAUCTT against Six6,inactive: 0.355
5,GGGCAUUCAUGAAGGUAUUTT against Olfr165,inactive: -0.576
6,GCCAGAUAUCUCACAGACATT against Ppil2,inactive: -1.93
7,GAGCAAGAUCCAGCCCUAUTT against Dub2,inactive: -0.66
8,GGACCCUGAACUACAACCUTT against Olfr860,inactive: 0.738
9,GGAGUCUCCCAAAUGAAGATT against Son,inactive: -2.45
10,GUCACAGAAAGCUUAGUCCTT against Olfr427,inactive: -0.599
11,GGUAAUGCCACAUUGAUGGTT against Upk2,inactive: -0.554
12,CGCCUAGUUAAGGAAGACATT against Mcam,inactive: 0.22
13,GGAUAUGAAGCCUUCAUGGTT against Slc5a1,inactive: -1.05
14,GAAAAUGGUAAUCUAGGCATT against Siah1b,inactive: 1.04
15,GCAGCAUUGACUGAAGAUCTT against Sprrl10,inactive: -0.283
16,GGAUGACAUCUCUAUCUUUTT against Sca10,inactive: 0.508
17,GCCGGUUUCAGUUAAAGAGTT against Pccb,inactive: 2.26
18,GCCUGGUGUAUGCUAAUGGTT against Crim2,inactive: -1.06
19,CGAGCUCAGGUGAGAAAUUTT against Pfpl,inactive: 2.09
20,CGUGACUCGUUGUUUCUGGTT against Fyn,inactive: 0.365
21,GGCCGACCCGUUUUCUUUUTT against Nap1l4,inactive: 0.898
22,GGAUUUGCAUAUGUUCAAUTT against Fusip1,inactive: 0.164
23,GGAACUGAUGGAGAAGCUATT against Tpcn2,inactive: 0.428
24,GGAGUUUUGUAUGGUGAAATT against Cd8b,inactive: -2.01
25,GCACCUGGUAAGGUCAUUCTT against Olfr545,inactive: -0.743
26,GGAGUAUCUAACAUCUACUTT against 5930405J04Rik,inactive: -0.0646

# In a second layout: results already given
row | Sequence | z-score
4 | GGCUCUAGAAGCGAGAAUCTT against Six6 | inactive: 0.355
5 | GGGCAUUCAUGAAGGUAUUTT against Olfr165 | inactive: -0.576
6 | GCCAGAUAUCUCACAGACATT against Ppil2 | inactive: -1.93
7 | GAGCAAGAUCCAGCCCUAUTT against Dub2 | inactive: -0.66
